Values quoted from earlier work in patent US20250090476A1, “PHARMACEUTICAL COMPOSITION AND BREXPIPRAZOLE ORALLY SOLUABLE FILM” (WISDOM PHARMACEUTICAL CO., LTD., priority 2022, published 2025).
At least one read-out could not be matched to a standard name with certainty.

Structure (SMILES): O=c1ccc2ccc(OCCCCN3CCN(c4cccc5sccc45)CC3)cc2[nH]1 [Brexpiprazole]
- permeability: high
